The structures appear in SMILES notation. The list shows a part of the results. Repeats in this data set agree poorly, so a single value says little.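 The cells were human embryonic kidney cells carrying a Renilla luciferase gene, driven by the HSV-TK promoter, on a plasmid put in briefly by transfection. This is the first-round screen of about ten thousand compounds, looking for ones that raise reporter output.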

This is an account of results in the supplement of paper PMC7024190.

This experiment relates to HEK 293FT. The experiment is described as follows: log relative Renilla luciferase luminescence (reporter expression vs reference, reference not stated) (log (base not stated)); higher = higher recombinant reporter expression. The settings on record: 10 µM; time after transfection 48 h.
As to `O=C1N(c2ccccc2)c2ccccc2C1(Cc1ccncc1)Cc1ccncc1`, the log was 0.0603.
The same measure for `O=c1ncc(F)c[nH]1` [5-fluoro-2-pyrimidone]: -0.0949.
The same measure for `Cc1[nH]cnc1CN1CCc2c(c3ccccc3n2C)C1=O`: -0.081; for `COc1ccc(CC(C)NCC(O)c2ccc(O)c(NC=O)c2)cc1` (stereo not given): -0.0978.
The same measure for `COc1ccccc1N1CCN(CCCNc2cc(=O)n(C)c(=O)n2C)CC1`: 0.244; for `Nc1c2c(nc3c1CCC3)CCCC2`: 0.0493.
With `Cn1nnc2c(C(N)=O)ncn2c1=O`, the log stood at 0.0308.
The same measure for `COc1ccc(CCN(C)CCCC(C#N)(c2ccc(OC)c(OC)c2)C(C)C)cc1OC` (stereo not given): 0.186; for `O=C(O[C@@H]1C[C@@H]2C[C@H]3C[C@H](C1)N2CC3=O)c1c[nH]c2ccccc12`: 0.171; for `CC12CC3CC(C)(C1)CC(N)(C3)C2`: 0.0207.
In the case of `CC(=O)OCC(CCn1cnc2cnc(N)nc21)COC(C)=O`, the log is 0.161.
The same measure for `CC(C)/N=c1\cc2n(-c3ccc(Cl)cc3)c3ccccc3nc-2cc1Nc1ccc(Cl)cc1`: -0.0993.
The same measure for `CC(=O)NC[C@H]1CN(c2ccc(N3CCOCC3)c(F)c2)C(=O)O1`: -0.337.
The same measure for `CCCCCCCCCCC[C@@H](C[C@@H]1OC(=O)[C@H]1CCCCCC)OC(=O)[C@H](CC(C)C)NC=O`: -1.33.
In the case of `CN(C)CCc1c[nH]c2ccc(Cn3cncn3)cc12`, the log was -0.631.
The same measure for `CC[C@H]1OC(=O)[C@H](C)[C@@H](O[C@H]2C[C@@](C)(OC)[C@@H](O)[C@H](C)O2)[C@H](C)[C@@H](O[C@@H]2O[C@H](C)C[C@H](N(C)C)[C@H]2O)[C@](C)(OC)C[C@@H](C)C(=O)[C@H](C)[C@@H](O)[C@]1(C)O`: 0.105; for `O=C(O[C@@H]1Cc2c(O)cc(O)cc2O[C@@H]1c1cc(O)c(O)c(O)c1)c1cc(O)c(O)c(O)c1` [Epigallocatechin gallate]: 0.0917; for `CCN(CC)CC(=O)Nc1c(C)cccc1C`: 0.0139.
The same measure for `O=C1c2c(O)cc(O)cc2O[C@H](c2ccc(O)c(O)c2)[C@H]1O` (racemic): -1.39.
As for `OC[C@H]1O[C@@H](Oc2cc(O)cc(/C=C/c3ccc(O)cc3)c2)[C@H](O)[C@@H](O)[C@@H]1O`, the log was -0.234.
The same measure for `C#C[C@]1(O)CC[C@H]2[C@@H]3CCC4=CC(=O)CC[C@@H]4[C@H]3CC[C@@]21CC`: 0.0336.
The same measure for `C[C@H]1COc2c(N3CCN(C)CC3)c(F)cc3c(=O)c(C(=O)O)cn1c23`: 0.0139; for `O=C1CN2Cc3c(ccc(Cl)c3Cl)N=C2N1`: -0.139; for `CC(C)(C)NC(=O)[C@@H]1C[C@@H]2CCCC[C@@H]2CN1C[C@@H](O)[C@H](Cc1ccccc1)NC(=O)[C@H](CC(N)=O)NC(=O)c1ccc2ccccc2n1`: -0.35.
The same measure for `Cc1cc2c(s1)Nc1ccccc1N=C2N1CCN(C)CC1`: -0.0381.
As for `O=c1c(O[C@@H]2O[C@H](CO)[C@@H](O)[C@H](O)[C@H]2O)c(-c2ccc(O)c(O)c2)oc2cc(O)cc(O)c12` [Isoquercitrin], the log was -0.118.
In the case of `CNNCc1ccc(C(=O)NC(C)C)cc1`, the log was -0.042.
The same measure for `COc1ccc(CC2c3cc(OC)c(OC)cc3CC[N+]2(C)CCC(=O)OCCCCCOC(=O)CC[N+]2(C)CCc3cc(OC)c(OC)cc3C2Cc2ccc(OC)c(OC)c2)cc1OC` (stereo not given): 0.111; for `C[C@H]1COc2c(C3(N)CC3)c(F)cc3c(=O)c(C(=O)O)cn1c23`: -0.108; for `Nc1nc(Cl)nc2c1ncn2[C@@H]1O[C@H](CO)[C@@H](O)[C@H]1O`: -0.311.
The same measure for `O=C(CCNNC(=O)c1ccncc1)NCc1ccccc1`: 0.214; for `Oc1ccc(/C=C/c2cc(O)cc(O)c2)cc1`: 0.158.
The same measure for `N#Cc1ccc(C(c2ccc(C#N)cc2)n2cncn2)cc1`: -0.00859; for `Cc1onc(-c2ccccc2)c1-c1ccc(S(N)(=O)=O)cc1`: -0.019.
As to `N[C@@H](C(=O)N[C@@H]1C(=O)N2C(C(=O)O)=C(Cl)CS[C@H]12)c1ccccc1`, the log was 0.0439.
On to `Nc1nc(Cl)nc2c1ncn2[C@H]1C[C@H](O)[C@@H](CO)O1`, for which the log is -0.378.
The same measure for `CC[C@H](C)C(=O)O[C@H]1C[C@H](O)C=C2C=C[C@H](C)[C@H](CC[C@@H](O)C[C@@H](O)CC(=O)O)[C@H]21` [PRAVASTATIN Sodium]: -0.0499; for `CCCCC(=O)N(Cc1ccc(-c2ccccc2-c2nnn[nH]2)cc1)[C@H](C(=O)O)C(C)C`: -0.0473.
Take `CO[C@@H]1[C@@H](O[C@@H]2O[C@H](C)[C@@H](O[C@H]3C[C@@](C)(O)[C@@H](OC(=O)CC(C)C)[C@H](C)O3)[C@H](N(C)C)[C@H]2O)[C@@H](CC=O)C[C@@H](C)[C@@H](O)/C=C/C=C/C[C@@H](C)OC(=O)C[C@H]1O`: the log was -0.112.
The same measure for `CN1CCC(=C2c3ccccc3CCc3sccc32)CC1` [Pizotyline]: -0.743.
